Results deposited as PubChem BioAssay AID504764 (Drosophila RNAi Screening Center, 2011).

Screen: 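Knock-downs that raise or lower a Notch target reporter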 (primary screen)
Cells: Drosophila Kc167 cells
Knock-down reagent: long dsRNA against Drosophila genes
Duration: about 5 days (4 days dsRNA, then 24 h after transfection)
Conditions: transfection of constitutively active membrane-tethered Notch lacking the extracellular domain, read 24 h later
Detection: 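Light from a Notch-responsive E(spl)m3 luciferase reporter under active Notch, with control-promoter and no-Notch reporter wells to normalise; raw counts from paired wells a and b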
Scale: induced reporter light, run 1, well a and induced reporter light, run 1, well b: higher = more light from the Notch target reporter with active Notch; control promoter light, run 1, well a and control promoter light, run 1, well b: higher = more light from the viral control promoter (cell number, transfection, viability); uninduced reporter light, run 1, well a: higher = more light from the Notch target reporter without active Notch
Rule for the call: 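Wells with low control signal or poorly matching duplicates excluded; duplicates averaged; per source plate, z beyond ±2 for induced/control log2 ratio or beyond ±1.8 for induced/uninduced marks a hit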
Meaning of the calls: active = modifier hit (raised or lowered Notch signal); inactive = not a hit
The deposit covers about 22,000 reagents; below is a random part of those that have a named target and a result. In the full data, 403 (1.9%) were called active. 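Unnormalised raw counts per well; ratio z-scores behind the hit calls and whether each hit raises or lowers signal are not deposited.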 A plus sign joins genes that one reagent is predicted to hit. Not stated in the record: the amount of reagent.

Target gene,amplicon,"induced reporter light, run 1, well a","induced reporter light, run 1, well b","control promoter light, run 1, well a","control promoter light, run 1, well b","uninduced reporter light, run 1, well a",Call
CG12320,DRSC14498,2.04e5,1.51e5,2.19e5,2.16e5,12400,inactive
CG10584,DRSC11624,1.55e5,1.51e5,1.25e5,1.24e5,8455,inactive
Tsen34 + Trl,DRSC10014,1.77e5,1.27e5,2.56e5,1.74e5,13780,inactive
St3 (Sulfotransferase 3),DRSC04505,2.00e5,1.75e5,1.67e5,1.61e5,17340,inactive
thoc5,DRSC04327,1.09e5,93430,68985,64455,6375,inactive
Pstk + Tim9b,DRSC19504,1.46e5,1.30e5,1.17e5,94720,11920,inactive
Pstk + Tim9b,DRSC20292,59915,86415,71785,1.03e5,8795,inactive
CG2519,DRSC12312,1.33e5,1.19e5,1.15e5,91735,10935,inactive
Atg13 (Autophagy-related 13),DRSC16228,1.09e5,1.35e5,99940,83705,9140,inactive
CG32026,DRSC08950,1.68e5,1.59e5,1.78e5,1.91e5,11820,inactive
mnb (minibrain),DRSC20058,19905,16170,17645,14685,4388,inactive
mnb (minibrain),DRSC20353,59805,58660,69430,65365,7060,inactive
Vps13B (Vacuolar protein sorting 13B),DRSC15060,1.52e5,1.39e5,1.82e5,1.50e5,9900,inactive
CG13578,DRSC04214,2.22e5,1.94e5,1.89e5,1.97e5,14145,inactive
CG10602,DRSC02075,1.66e5,1.85e5,1.74e5,1.63e5,13515,inactive
Cad89D (Cadherin 89D),DRSC15022,2.15e5,2.22e5,2.59e5,2.62e5,23555,inactive
CG3520,DRSC04383,1.60e5,1.55e5,1.59e5,1.51e5,10715,inactive
ND-ACP,DRSC08724,67085,81130,1.17e5,1.47e5,5135,inactive
CG13442,DRSC06402,1.06e5,1.33e5,2.53e5,1.33e5,6545,inactive
CG4935,DRSC01924,1.15e5,1.20e5,1.29e5,1.38e5,10245,inactive
gdrd (goddard),DRSC10020,1.80e5,2.12e5,2.69e5,2.64e5,8530,inactive
CG42818 + Ca-Ma2d,DRSC01963,1.31e5,1.53e5,1.33e5,1.43e5,11350,inactive
CG3631,DRSC15503,1.85e5,1.72e5,1.30e5,1.20e5,12738,inactive
CG14277,DRSC02380,1.55e5,1.87e5,93945,1.30e5,24865,inactive
Dhc93AB (Dynein heavy chain at 93AB),DRSC16644,1.83e5,1.69e5,1.89e5,2.15e5,14970,inactive
eIF4EHP,DRSC13653,2.22e5,2.38e5,1.95e5,2.08e5,18682,inactive
eIF4EHP,DRSC14265,1.84e5,1.36e5,1.87e5,2.21e5,13660,inactive
RpL8 (Ribosomal protein L8),DRSC08532,6125,5960,8970,10750,475,inactive
RpL8 (Ribosomal protein L8),DRSC08695,7542,7050,10900,13010,365,inactive
crb (crumbs),DRSC16927,1.10e5,1.27e5,1.35e5,1.41e5,10365,inactive
Cyp4d14 (Cytochrome P450 4d14),DRSC18457,94175,95140,1.67e5,1.64e5,5795,inactive
Ptp52F (Protein tyrosine phosphatase 52F),DRSC06717,1.19e5,88480,1.33e5,1.29e5,10675,inactive
CG15814,DRSC19730,1.00e5,67880,83685,57675,6465,inactive
CG7988,DRSC16358,2.14e5,1.73e5,2.17e5,2.05e5,11315,inactive
Hrs (Hepatocyte growth factor regulated tyrosine kinase substrate),DRSC00549,2.23e5,1.99e5,2.29e5,2.45e5,23210,inactive
CG1951,DRSC15403,1.96e5,2.12e5,3.11e5,3.09e5,18705,inactive
CG7214,DRSC03028,1.95e5,1.82e5,1.63e5,1.87e5,14925,inactive
CG7214,DRSC21869,,,,,,inactive
dup (double parked),DRSC07088,44980,36940,38630,41995,5675,inactive
CG14860,DRSC14983,2.59e5,2.58e5,1.92e5,2.06e5,20765,inactive
CG12307,DRSC02159,1.67e5,1.69e5,93950,1.31e5,18075,inactive
LeuRS (Leucyl-tRNA synthetase),DRSC00581,1.25e5,1.06e5,1.06e5,1.33e5,7015,inactive
CG15167,DRSC02468,59565,49370,50515,44215,4275,inactive
SpdS (Spermidine Synthase),DRSC16408,77165,66530,66410,61065,6815,inactive
CG17562,DRSC15243,3.53e5,3.33e5,2.58e5,2.61e5,22742,active
m-cup (mann-cup),DRSC14430,2.13e5,2.26e5,2.44e5,2.06e5,16785,inactive
CG3630,DRSC18499,1.60e5,1.47e5,2.42e5,2.64e5,13632,inactive
Ctu1 (Cytosolic thiouridylase subunit 1),DRSC07069,1.61e5,1.71e5,2.41e5,2.53e5,15200,inactive
pre-mod(mdg4)-Z + mod(mdg4) + pre-mod(mdg4)-T,DRSC13477,67130,52610,79975,61480,8350,inactive
pre-mod(mdg4)-Z + mod(mdg4) + pre-mod(mdg4)-T,DRSC17001,1.94e5,1.67e5,2.56e5,2.59e5,16825,inactive
